Laboratory results: PubChem BioAssay AID1259425 (University of Nebraska Medical Center, 2018)
The deposit covers about 14,000 reagents; below is an unselected part. Not all columns of the deposit are shown. Not given: the time to read-out.

Test: 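Find knockdowns that reproduce the gene expression pattern seen when KSR1 is lost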 (primary screen)
Cell system: HCT116 human colon cancer cells
Knock-down reagent: siRNA pool against human genes, 50 nM siRNA
Read-out: 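After 50 nM siRNA pool, branched-DNA assay measures six marker transcripts per well, minus blank, normalised to the geometric mean of two housekeeping transcripts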
Scale: BNIP3L mRNA: higher = more BNIP3L transcript after knockdown

target gene	BNIP3L mRNA, set 1
BIVM	0.0871
PMS2P1	0.211
IGFALS	0.109
KNL1	0.097
LAMTOR2	0.0747
ZNF821	0.0588
CNOT2	0.115
SEM1	0.0483
TCAP	0.18
SULT1E1	0.0597
ABCC6	0.0705
NOX1	0.0554
BBOX1	0.194
LRRC8D	0.155
SNX17	0.133
CFHR2	0.0869
PTPRR	0.272
TADA3	0.13
S1PR1	0.168
RPLP1	0.0765
ATF3	0.0633
FBXL9P	0.112
CDKN1B	0.0895
PTGER4	0.0897
PADI4	0.0875
NXF1	0.303
MUC1	0.158
MEFV	0.128
FIGN	0.0863
PSTPIP2	0.114
TKTL1	0.0984
SNAPC2	0.112
PEX6	0.055
CENPF	0.112
CRYM	0.0656
NEK6	0.218
FRK	0.381
SELE	0.137
GOT1	0.118
SDC3	0.141
OPRK1	0.0551
UBE3A	0.0403
LTB4R2	0.16
ZNF221	0.143
GRIK1	0.155
SYP	0.177
FGL1	0.0881
PAQR7	0.0785
RBM6	0.0732
FOLR1	0.303

Entries above whose gene name starts with G or g:
target gene	BNIP3L mRNA, set 1
GOT1	0.118
GRIK1	0.155
